Experimental data reported in the supplement of paper PMC7877785.
± gives the uncertainty stated by the source. Many of these values have a large error.

Test: self-splicing fitness, log relative to wild type (ln ratio); higher = more splicing; Tetrahymena group I intron in knt gene, E. coli kanamycin selection, DiMSum; sequences stand for … in CUCUCU…GGAGGGAAAAGUUAUCAGGCAUGCACCUGGUAGCUAGUCUUUAAACCAAUAGAUUGCAUCGGUUUAAAAGGCAAGACCGUCAAAUUGCGGGAAAGGGGUCAACAGCCGUUCAGUACCAAGUCUCAGGGGAAACUUUGAGAUGGCCUUGCAAAGGGUAUGGUAAUAAGCUGACGGACAUGGUCCUAACCACGCAGCCAAGUCCUAAGUCAACAGAUCUUCUGUUGAUAUGGAUGCAGUUCACAGACUAAAUGUCGGUCGGGGAAGAUGUAUUCUUCUCAUAAGAUAUAGUCGGACCUCUCCUUAAUGGGAGCUAGCGGAUGAAGUGAUGCAACACUGGAGCCGCUGGGAACUAAUUUGUAUGCGAAAGUAUAUUGAUUAGUUUUGGAGUACUCGUGGUCG
In short: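 A randomised library covering all eight P1ex-region intron nucleotides was built with the intron in the knt kanamycin-resistance gene on pET-22b(+) and held in E. coli BL21(DE3). Cells were grown overnight at 37°C or 30°C on LB agar, with or without 25 μg/mL kanamycin, plus 100 μg/mL carbenicillin, 50 μM IPTG and 0.2% rhamnose, and pooled colonies were amplicon-sequenced on an Illumina HiSeq 2500. DiMSum fitness is the error-weighted combination of wild-type-normalised replicate fold changes, kanamycin versus none.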

Sequence | self-splicing fitness (ln) (30 °C) | self-splicing fitness (ln) (37 °C)
AUUGAGCAAUAUUACGAGUA | -3.25 ± 0.66 | -1.59 ± 0.56
GCAUAGCAAUAUUACGCUUC | -4.54 ± 0.51 | –
GUCGAGCAAUAUUACGAACG | -4.58 ± 0.59 | –
UAAGAGCAAUAUUACGCGUU | -3.96 ± 1 | –
UAUAAGCAAUAUUACGGCCG | 0.336 ± 0.23 | 0.0314 ± 0.26
GCCUAGCAAUAUUACGCCUG | -3.96 ± 1 | -1.72 ± 0.7
CCUGAGCAAUAUUACGGGGC | – | -3.77 ± 0.51
ACAGAGCAAUAUUACGACCG | -3.66 ± 0.74 | -2.14 ± 0.84
AGUUAGCAAUAUUACGCUGG | – | -2.71 ± 0.76
GUAAAGCAAUAUUACGAUCC | -0.0218 ± 0.18 | 0.363 ± 0.29
UCAGAGCAAUAUUACGCCCU | -3.98 ± 0.73 | –
UCUUAGCAAUAUUACGGUCG | -0.895 ± 0.16 | -1.37 ± 0.33
AAGUAGCAAUAUUACGCGGC | -3.47 ± 0.53 | –
AACCAGCAAUAUUACGACUA | 0.0905 ± 0.084 | -0.0751 ± 0.079
AGGGAGCAAUAUUACGGAAC | -3.01 ± 0.38 | -2.68 ± 0.41
AAGUAGCAAUAUUACGGUGC | -3.66 ± 0.53 | –
CCAUAGCAAUAUUACGCAUC | -3.39 ± 0.27 | -2.31 ± 0.3
CUAGAGCAAUAUUACGCCGA | -2.81 ± 0.63 | –
GCGAAGCAAUAUUACGCCCA | -2.63 ± 0.5 | -0.595 ± 1
CAUAAGCAAUAUUACGAACC | -4.43 ± 0.72 | –
CUAGAGCAAUAUUACGCGUC | -3.79 ± 0.52 | -1.98 ± 0.51
GACAAGCAAUAUUACGCCCC | -3.03 ± 1.1 | 0.0981 ± 1.2
AGCAAGCAAUAUUACGCUAG | -4.08 ± 0.25 | -2.1 ± 0.22
GAAUAGCAAUAUUACGUGUA | -1.82 ± 0.12 | -1.49 ± 0.13
GCAUAGCAAUAUUACGUACC | -0.706 ± 0.19 | -0.405 ± 0.26
GUGGAGCAAUAUUACGAGGC | -4.25 ± 0.73 | –

Quoted at random: two entries already listed
Sequence | self-splicing fitness (ln) (30 °C) | self-splicing fitness (ln) (37 °C)
ACAGAGCAAUAUUACGACCG | -3.66 ± 0.74 | -2.14 ± 0.84
AGUUAGCAAUAUUACGCUGG | – | -2.71 ± 0.76

Going on with the list:

Sequence | self-splicing fitness (ln) (30 °C) | self-splicing fitness (ln) (37 °C)
UCGGAGCAAUAUUACGCGAU | -3.51 ± 0.19 | -2.42 ± 0.23
AUAUAGCAAUAUUACGUUCC | – | -1.96 ± 0.51
UGAGAGCAAUAUUACGCUAU | -3.09 ± 0.35 | -1.48 ± 0.46
CCAUAGCAAUAUUACGAAUA | -3.44 ± 0.6 | -3.09 ± 0.6
AUCAAGCAAUAUUACGAAGC | – | -2.79 ± 0.74
GAAGAGCAAUAUUACGCUGG | – | -1.38 ± 0.58
CGGCAGCAAUAUUACGCGGA | -3.57 ± 1 | –
UUGCAGCAAUAUUACGGAAC | – | -1.54 ± 0.6
CUUGAGCAAUAUUACGCCGA | -4.15 ± 0.73 | –
CCGUAGCAAUAUUACGAUUC | -4.4 ± 0.72 | -1.81 ± 0.55
GGGCAGCAAUAUUACGUGCC | -1.82 ± 0.7 | –
UAGGAGCAAUAUUACGGUUC | -4.17 ± 0.59 | -2.64 ± 0.75
CUAGAGCAAUAUUACGGCCC | -3.76 ± 0.53 | -3.11 ± 0.6
CAAUAGCAAUAUUACGCGCC | -2.93 ± 1.1 | –
UCUCAGCAAUAUUACGCACC | – | -2.34 ± 0.5
AGUCAGCAAUAUUACGAGAA | -2.51 ± 0.73 | –
GCUGAGCAAUAUUACGUCUC | -2.4 ± 0.67 | –
UUUGAGCAAUAUUACGCACG | -3.19 ± 0.52 | –
CUUCAGCAAUAUUACGACCG | 0.185 ± 0.083 | -0.454 ± 0.12
CGACAGCAAUAUUACGUAUC | -4.74 ± 0.58 | –
CAUGAGCAAUAUUACGAAGA | -3.49 ± 0.52 | –
UGAAAGCAAUAUUACGCAGC | -3.91 ± 0.51 | –
GGUCAGCAAUAUUACGAACC | -2.47 ± 1.1 | -0.778 ± 1.4
GUCCAGCAAUAUUACGCAGU | -0.463 ± 0.046 | -0.161 ± 0.058
UCGGAGCAAUAUUACGCUCG | – | -1.05 ± 0.67
